In assay [1] the target is glia maturation factor beta (human) (UniProt P60983). Description: immunohistochemistry on metastatic breast cancer and lymph node tissue sections.
The target is the same in assay [2]. The assay is described as follows: immunohistochemistry on primary breast cancer tissue sections.

By UniProt entry, the sequences of proteins in these tests, tags left out. Where a name states a change or a piece, a line headed by the entry shows the natural chain unless it says otherwise.
UniProt P60983: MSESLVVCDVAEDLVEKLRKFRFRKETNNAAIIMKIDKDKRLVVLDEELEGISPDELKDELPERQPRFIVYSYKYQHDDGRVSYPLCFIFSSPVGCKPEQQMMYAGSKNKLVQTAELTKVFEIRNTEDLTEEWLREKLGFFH

These are yes or no findings as the source states them, for the method shown. Some entries that bind do so weakly or less than the wild type.

B1: Alper-sGMF-B mAb (antibody, V domains shown)
VH: VQLQQSGPELVKPGASVKMSCKASGYTFTSYVMHWVKQKPGQGLEWIGYINPYNEGTKYNEKFKGKATLTSDKSSSTAYMELSSLTSEDSAVYYCARSTMITTGFAYWGQGTTVT
VL: DILMTQSPSSLSASLGGKVTITCKASQDINKYIAWYQHKPGEGPRLLIHYTSTLQPGIPSRFSGSGSGRDYSFSITNLEPEDIATYYCLQYDNLWTFGGGTKLEIK
Consider B1, for which the binding result in assay [1] and in assay [2] was “binds” each time.

The values are drawn from patent US20140087400A1.
